The results in this text go back to paper doi:10.1101/2020.10.21.349357.

In this test the target is Flag-NEMO coil zipper (COZI) domain. As to the kind of experiment: co-IP.

Results are given in words; binding and its absence hold for the method and conditions named. Binding seen in cells or lysates may run through a third protein. Binding can be weak; no strength is given. Tags and fused reporters may be left off the sequences shown.

B1: HA-tagged N4BP1 (full length) (protein, UniProt O75113 1-896)
chain: MAARAVLDEFTAPAEKAELLEQSRGRIEGLFGVSLAVLGALGAEEPLPARIWLQLCGAQEAVHSAKEYIKGICEPELEERECYPKDMHCIFVGAESLFLKSLIQDTCADLCILDIGLLGIRGSAEAVVMARSHIQQFVKLFENKENLPSSQKESEVKREFKQFVEAHADNYTMDLLILPTSLKKELLTLTQGEENLFETGDDEVIEMRDSQQTEFTQNAATGLNISRDETVLQEEARNKAGTPVSELTKQMDTVLSSSPDVLFDPINGLTPDEEALSNERICQKRRFSDSEERHTKKQFSLENVQEGEILHDAKTLAGNVIADLSDSSADSENLSPDIKETTEEMEYNILVNFFKTMGYSQEIVEKVIKVYGPSTEPLLLLEEIEKENKRFQEDREFSAGTVYPETNKTKNKGVYSSTNELTTDSTPKKTQAHTQQNMVEKFSQLPFKVEAKPCTSNCRINTFRTVPIEQKHEVWGSNQNYICNTDPETDGLSPSVASPSPKEVNFVSRGASSHQPRVPLFPENGLHQQPEPLLPNNMKSACEKRLGCCSSPHSKPNCSTLSPPMPLPQLLPSVTDARSAGPSDHIDSSVTGVQRFRDTLKIPYKLELKNEPGRTDLKHIVIDGSNVAITHGLKKFFSCRGIAIAVEYFWKLGNRNITVFVPQWRTRRDPNVTEQHFLTQLQELGILSLTPARMVFGERIASHDDRFLLHLADKTGGIIVTNDNFREFVNESVSWREIITKRLLQYTFVGDIFMVPDDPLGRSGPRLEEFLQKEVCLRDMQPLLSALPNVGMFDPSFRVPGTQAASTSHQPPTRIQGAPSSHWLPQQPHFPLLPALPSLQQNLPMPAQRSSAETNELREALLKIFPDSEQRLKIDQILVAHPYMKDLNALSAMVLD
Regarding B1, the binding entry is on record as “binds”.
